# From patent US9982017B2 (priority 2012, dated 2018)
# [ ]: non-standard residue; d: D form. pGlu = O=C1CC[C@@H](C(=O)O)N1; Nle = CCCC[C@H](N)C(=O)O
# Test: general procedure: Fmoc solid-phase peptide synthesis; Rink-Amide-AM-PS
# Conditions: whole synthesis, scale 0.100 mmol, one disulfide bridge, sequence written open
substance,measurement,value
[pGlu]RPRLCHKGP[Nle]CF-NH2 (cysteine pairing not given here),isolated mass,50.5 mg
